Reference: patent publication US20180271888A1, “COMPOSITIONS AND METHODS FOR PARKINSON'S DISEASE THERAPY” (priority 2017, published 2018)
At least one structure is not confirmed: it was looked up by name or label, or the drawing left a doubt.

Tests used:
Assay type in all cases: in vivo, mouse
WT and P2X4R KO mice = experiment: Prepulse inhibition (PPI) of acoustic startle reflex
Protocol: Acoustic startle reflex and PPI were tested as previously described (Wyatt, L. R. et al. (2013) Neuropsychopharmacology 38:1993-2002). The apparatus used for detection of startle reflex (San Diego Instruments, San Diego, Calif., USA) consisted of a standard cage placed in sound attenuated chambers with fan ventilation. Each cage consisted of a Plexiglass cylinder of 3 cm diameter, mounted on piezoelectric accelerometric platform connected to an analog-digital converter. Background noise and acoustic bursts were conveyed by two separate speakers, each one oriented appropriately so as to produce a variation in sound within 1 dB across the startle cage. Both speakers and startle cages were connected to the main PC, which detected and analyzed all chamber variables with Startle software (San Diego Instruments). Before each testing session, acoustic stimuli were calibrated via a digital sound level meter.
During the baseline session, mice were exposed to background noise of 70 dB and, after an acclimatization period of 5 min, were presented with 12 40 ms trials of 115 dB interposed with three trials of a 82 dB pre-stimulus preceding the 115 dB by 100 ms. […] Delta PPI (APPI) was calculated as mean startle amplitude for pulse alone trials—(mean startle amplitude for prepulse trial). […]
For the western blotting analysis, the average of densitometry values of WT striatal samples was used to arbitrarily normalize WT samples to 1 and the P2X4R KO striatal samples were normalized by dividing each densitometry value by the average of WT samples. […] Normalized density of proteins was expressed as mean±SEM. Phosphorylation was calculated as ratio of normalized values of phosphorylated form to total form of protein. DA levels were expressed as ng/mg of protein content. […] Pharmacological studies for motor behavior and sensorimotor gating were analyzed by two-way repeated measures ANOVA with time/PPI intensity and genotype/treatment as within and between-subjects variability, respectively, followed by Bonferroni post hoc test for multiple comparisons. […]

[1] = tested on: mice with unilateral medial forebrain bundle lesions; experiment: L-DOPA induced rotations with MOX and IVM in mice with medial forebrain bundle lesions (Example 3); conditions: IVM 5 mg/kg I.P. 8 h prior or MOX 2.5 mg/kg 4 h prior; L-Dopa 5 mg/kg S.C.; 90 min
DOPAC = experiment: HPLC analysis of brain tissue after MOX (DOPAC); conditions: MOX 1, 2.5 or 5 mg/kg I.P., tissue collected 4 h later

Compound: CN1CCc2cc(Cl)c(O)cc2[C@@H](c2ccccc2)C1 [SCH-23390]
- PPI of acoustic startle reflex (WT and P2X4R KO mice; P2X4R KO mice vs saline, SCH-23390 1 mg/kg i.p. or raclopride 3 mg/kg i.p., 10 min prior, significant at PPI 6 and PPI 12): significantly increased
- startle amplitude (WT and P2X4R KO mice; P2X4R KO mice, SCH-23390 1 mg/kg or raclopride 3 mg/kg): without any changes
- PPI function (WT and P2X4R KO mice; WT mice, SCH-23390 1 mg/kg or raclopride 3 mg/kg i.p.): no significant changes

Compound: CO/N=C1\C[C@]2(C[C@@H]3C[C@@H](C/C=C(\C)C[C@@H](C)/C=C/C=C4\CO[C@@H]5[C@H](O)C(C)=C[C@@H](C(=O)O3)[C@]45O)O2)O[C@H](/C(C)=C/C(C)C)[C@H]1C [MOX, moxidectin]
- L-DOPA induced rotational behavior [1]: only slightly increased
- DOPAC level (DOPAC): significantly decreased
